Values joined by “and” are separate entries in the source; they are usually repeats but may differ in a detail not shown here. Equal values may be shown once. The name of at least one read-out is uncertain.
Test system: db/db mice
Assay: Oral glucose tolerance test in db/db mice (blood glucose and blood lactic acid levels)
Type: in vivo, mice (C57BLKS/J-m+/+Lepr<db>(db/db))
Settings: subcutaneous, 30 min before oral glucose 3 g/kg, AUC up to 2 hours
Description: In a glucose tolerance test with oral administration to db/db mice, approximately 50% suppression of blood glucose level in the db/db mice produces a level increase similar to that of healthy mice, and therefore a blood glucose reduction rate of at least 40%, and especially at least 50%, is preferred.
Measurement of blood glucose reduction rate in db/db mice by a glucose tolerance test with oral administration may be carried out by a publicly known method, but the following method is preferred. Specifically, 11- to 17-week-old female mice (C57BLKS/J-m+/+Lepr(db/db) ) are starved for 18-24 hours. A group of five or six mice is used for the test. Blood is sampled from the tail for measurement of the blood glucose levels before treatment as a control. After sampling, the biguanide derivative is dissolved in phosphate-buffered saline to a suitable concentration and subcutaneously administered at a dose of 5 ml/kg. As a control there are prepared mice administered only the solvent. […] The blood glucose levels are measured using a New Blood Sugar Test (Roche Diagnostics) or a Glucose CII-Test Wako (Wako Pure Chemical Industries, Ltd.).
The blood glucose reduction rate is calculated according to the following formula. […]
The AUC for blood glucose increase level represents the area of the increase portion in a graph of the blood glucose level changes after glucose administration plotted with respect to time, up to 2 hours after glucose administration, with the glucose level prior to glucose administration as the baseline. Specifically, the AUC for the blood glucose increase level may be calculated by the following formula, where A=blood glucose level before glucose administration, B=blood glucose level 30 minutes after glucose administration, C=blood glucose level 1 hour after glucose administration, D=blood glucose level 2 hours after glucose administration. […]
The blood lactic acid level increase rate is calculated according to the following formula. […]

`CN(C)C(=N)N=C(N)N` [Metformin, reference compound] was tested, and the “Blood glucose reduction rate (%)” value (100 mg/kg, 100 mg/kg) was 17.3%, the “Blood glucose reduction rate (%)” value (200 mg/kg, 200 mg/kg) was 37.7% and the “Blood glucose reduction rate (%)” value (300 mg/kg, 300 mg/kg) was 74.1% and 72.7% and 93.4% and 92.3%.
